Some of these results come from one statement about several compounds together. At least one structure is not confirmed: it was looked up by name or label, or the drawing left a doubt.
What was measured:
[1] = test system: HIV-1-IIIB; experiment: HIV-1 infection of PBL, supernatant medium RT activity; type: cell-based; details: PBL with HIV-1-BaL or HIV-1-IIIB
Procedure: (§1) Monocytes and lymphocytes were isolated and cultured as previously described (J. Exp. Med. 174:1477 (1991)). Briefly, monocytes were isolated by sequential ficoll-sodium diazotrate and Percoll gradients with subsequent adherence to cultureware plastic, and then cultured in Dulbecco's modified Eagle medium (GIBCO, Grand Islands, N.Y.) with 10% unheated human serum. Lymphocytes were from ficoll-sodium diazotrate gradients, and were cultured with anti-CD3/anti-CD28 antibody and subsequently IL-2. Reverse transcription (RT) was measured as described (Weinberg et al, J. Exp. Med. 174:1477 (1991)) using a phosphoimager device for quantification. Leukemia cell lines Jurkat, CEM, HL-60, and U937 were obtained from American Type Culture Collection (Rockville, Md.). […] The cobalamins had extremely low endotoxin content, as determined by Limulus amebocyte lysate testing (Whitaker Bioproducts, Walkerville, Md.). […] Cobalamins were not toxic for Mo, Mac, Lym, and leukemia cell line cells, as determined by morphology under phase microscopy, Wright staining of methanol-fixed cells, trypan blue exclusion, and thymidine incorporation were carried out in accordance with standard techniques.
PBL were inoculated with HIV-1-IIIB (MOI ˜0.1) and cultured with the designated cobalamin for 15-25 days. Supernatant medium RT was then measured. […]

[2] = test system: HIV-1-BaL; experiment: HIV-1 infection of monocytes / mononuclear phagocytes (Mo, Mac), supernatant medium RT activity; type: cell-based; details: Mo with HIV-1-BaL or HIV-1-ADA
Procedure: as §1, with “quantification.” for “quantification. Leukemia cell lines Jurkat, CEM, HL-60, and U937 were obtained from American Type Culture Collection (Rockville, Md.).”
Monocytes were inoculated at time zero with HIV-1-Bal (Weinberg et al, J. Exp. Med. 174:1477 (1991)) (MOI ˜0.1)and cultured with the designated cobalamin for 7-14 days. Supernatant medium RT was then measured (Weinberg et al, J. Exp. Med. 174:1477 (1991)). […]

Structure (SMILES): C/C1=C2/[N-][C@H]([C@H](CC(N)=O)[C@@]2(C)CCC(=O)NC[C@@H](C)OP(=O)([O-])O[C@H]2[C@@H](O)[C@@H](n3cnc4cc(C)c(C)cc43)O[C@@H]2CO)[C@]2(C)N=C(/C(C)=C3N=C(/C=C4N=C1[C@@H](CCC(N)=O)C\4(C)C)[C@@H](CCC(N)=O)[C@]\3(C)CC(N)=O)[C@@H](CCC(N)=O)[C@]2(C)CC(N)=O.[Co+3].[OH-] [OH-Cbl, hydroxocobalamin]
- inhibition of RT [1]: up to 90%
- inhibition of RT [2]: up to 90%
